Laboratory results as given in the supplement of paper PMC10849652.
The other results are listed elsewhere or left out.

Amino acid sequences for entries named in this document (tags omitted). A change or cut given only in a name is not applied to a line headed by its entry.
UniProt Q9H4X1: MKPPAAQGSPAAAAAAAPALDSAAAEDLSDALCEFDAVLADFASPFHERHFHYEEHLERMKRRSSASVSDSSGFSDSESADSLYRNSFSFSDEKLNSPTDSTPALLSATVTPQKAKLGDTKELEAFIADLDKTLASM
UniProt Q8WVD5: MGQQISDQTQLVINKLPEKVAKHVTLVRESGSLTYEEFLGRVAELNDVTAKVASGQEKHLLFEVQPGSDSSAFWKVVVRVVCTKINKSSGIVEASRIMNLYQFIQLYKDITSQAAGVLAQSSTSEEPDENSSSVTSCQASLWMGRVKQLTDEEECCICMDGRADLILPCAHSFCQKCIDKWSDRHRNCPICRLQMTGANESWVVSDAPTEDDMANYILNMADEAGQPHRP
UniProt Q9NVN3: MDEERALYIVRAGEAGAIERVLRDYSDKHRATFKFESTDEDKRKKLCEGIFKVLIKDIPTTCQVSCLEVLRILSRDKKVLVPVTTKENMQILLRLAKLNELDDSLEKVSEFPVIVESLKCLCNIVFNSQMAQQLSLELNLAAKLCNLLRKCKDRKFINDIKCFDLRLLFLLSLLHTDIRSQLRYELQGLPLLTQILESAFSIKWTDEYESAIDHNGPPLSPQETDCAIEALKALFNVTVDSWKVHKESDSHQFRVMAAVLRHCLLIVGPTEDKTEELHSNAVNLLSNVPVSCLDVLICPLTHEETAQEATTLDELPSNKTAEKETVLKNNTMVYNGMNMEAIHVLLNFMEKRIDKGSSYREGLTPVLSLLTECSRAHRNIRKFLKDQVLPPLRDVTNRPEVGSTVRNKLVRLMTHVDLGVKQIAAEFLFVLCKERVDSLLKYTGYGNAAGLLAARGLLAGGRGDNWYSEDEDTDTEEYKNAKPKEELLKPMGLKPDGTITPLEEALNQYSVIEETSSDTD
UniProt Q6PCD5: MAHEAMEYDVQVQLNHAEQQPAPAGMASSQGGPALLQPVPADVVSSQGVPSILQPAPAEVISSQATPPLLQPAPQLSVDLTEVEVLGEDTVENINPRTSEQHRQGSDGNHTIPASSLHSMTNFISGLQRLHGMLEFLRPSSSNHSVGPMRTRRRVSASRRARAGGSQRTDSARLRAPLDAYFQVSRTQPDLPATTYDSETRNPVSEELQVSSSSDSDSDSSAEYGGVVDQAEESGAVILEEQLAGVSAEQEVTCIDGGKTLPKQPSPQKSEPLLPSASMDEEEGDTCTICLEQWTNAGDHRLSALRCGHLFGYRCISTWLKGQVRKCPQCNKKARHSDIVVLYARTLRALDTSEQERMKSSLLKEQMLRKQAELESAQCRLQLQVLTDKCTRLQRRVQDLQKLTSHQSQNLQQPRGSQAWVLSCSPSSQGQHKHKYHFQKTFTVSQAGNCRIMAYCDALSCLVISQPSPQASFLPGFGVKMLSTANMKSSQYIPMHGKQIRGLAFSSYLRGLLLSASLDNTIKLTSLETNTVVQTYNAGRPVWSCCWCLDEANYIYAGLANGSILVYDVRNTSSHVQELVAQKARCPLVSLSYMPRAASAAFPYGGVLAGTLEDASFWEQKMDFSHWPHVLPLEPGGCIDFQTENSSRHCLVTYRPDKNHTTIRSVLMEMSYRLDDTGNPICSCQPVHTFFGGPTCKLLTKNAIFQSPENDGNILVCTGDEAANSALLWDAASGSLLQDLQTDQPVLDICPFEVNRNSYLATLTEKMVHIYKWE
UniProt O94762: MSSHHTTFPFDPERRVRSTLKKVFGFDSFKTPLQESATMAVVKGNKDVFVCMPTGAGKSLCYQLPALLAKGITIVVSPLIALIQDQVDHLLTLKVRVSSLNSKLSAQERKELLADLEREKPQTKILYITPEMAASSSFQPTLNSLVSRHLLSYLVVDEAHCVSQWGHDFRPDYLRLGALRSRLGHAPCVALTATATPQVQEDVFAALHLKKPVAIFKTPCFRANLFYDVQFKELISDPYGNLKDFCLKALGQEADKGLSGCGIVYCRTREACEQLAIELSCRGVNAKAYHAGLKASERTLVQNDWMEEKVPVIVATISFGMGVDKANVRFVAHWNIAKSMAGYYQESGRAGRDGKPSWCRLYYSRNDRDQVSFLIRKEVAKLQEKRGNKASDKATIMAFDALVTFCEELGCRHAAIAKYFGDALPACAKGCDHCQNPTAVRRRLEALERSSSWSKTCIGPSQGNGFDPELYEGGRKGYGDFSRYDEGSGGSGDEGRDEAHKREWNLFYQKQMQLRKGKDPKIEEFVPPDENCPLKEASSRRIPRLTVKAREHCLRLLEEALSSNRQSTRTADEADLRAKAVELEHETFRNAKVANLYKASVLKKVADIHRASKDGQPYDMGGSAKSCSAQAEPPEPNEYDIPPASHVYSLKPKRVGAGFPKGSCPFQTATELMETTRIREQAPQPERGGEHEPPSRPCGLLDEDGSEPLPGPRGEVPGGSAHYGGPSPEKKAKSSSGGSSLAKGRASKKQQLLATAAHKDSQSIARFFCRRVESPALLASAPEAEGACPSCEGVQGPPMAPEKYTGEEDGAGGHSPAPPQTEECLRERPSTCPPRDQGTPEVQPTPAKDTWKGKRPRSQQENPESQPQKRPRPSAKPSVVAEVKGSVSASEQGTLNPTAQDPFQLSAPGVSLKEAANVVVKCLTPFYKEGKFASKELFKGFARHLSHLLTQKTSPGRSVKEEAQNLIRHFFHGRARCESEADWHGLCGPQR

Legend:
Assay in all cases: log2 fold change, soluble protein after heating vs DMSO (PISA); higher = thermal stabilisation; K562 cells, 10 uM, 30 min; active = over 0.2 and 3.5 SD of the protein, either way, in both replicates (recomputed)
[1] = compound: CNC(=O)C1=CC=CC=C1NC2=NC(=NC=C2Cl)NC3=C(C=C(C=C3)N4CCOCC4)OC
Procedure, shortened: (§1)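 K562 cells (2×10^6 cells/mL) were treated with 10 μM compound for 30 min, and aliquots were heated for 3 min over 48°C-58°C. Pooled aliquots were extracted in PBS with 0.5% NP-40 at 4°C, and the supernatant after 21,000xg for 90 min was measured by TMTpro 16plex LC-MS/MS with channel sums equalised. Reported thermal stability, relative to control samples and from duplicates, is a log2 fold change.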

[2] = compound: COc1cc(C(=O)O)ccc1NC(=O)[C@@H]1N[C@@H](CC(C)(C)C)[C@](C#N)(c2ccc(Cl)cc2F)[C@H]1c1cccc(Cl)c1F [idasanutlin]
Procedure, shortened: as §1

[3] = compound: COc1cc2ncnc(Nc3ccc(F)c(Cl)c3)c2cc1OCCCN1CCOCC1 [gefitinib]
Procedure, shortened: as §1

[4] = compound: CS(=O)(=O)N1CCN(Cc2cc3nc(-c4cccc5[nH]ncc45)nc(N4CCOCC4)c3s2)CC1 [pictilisib]
Procedure, shortened: as §1

[5] = compound: CN1CCN(c2nc(C3=C(c4c[nH]c5ccccc45)C(=O)NC3=O)c3ccccc3n2)CC1 [sotrastaurin]
Procedure, shortened: as §1

[6] = compound: CN1CCc2c(c3ccccc3n2Cc2ccc(C(=O)NO)cc2)C1 [Tubastatin A]
Procedure, shortened: as §1

[7] = compound: CNC(=O)c1ccc(Nc2ncc(C(F)(F)F)c(NCc3nccnc3N(C)S(C)(=O)=O)n2)cc1 [defactinib]
Procedure, shortened: as §1

[8] = compound: COC(=O)[C@H](CCSC)NC(=O)C1=C(C=C(C=C1)NC[C@H](CS)N)C2=CC=CC=C2
Procedure, shortened: as §1

[9] = compound: COC1=CC=C(C=C1)CN2C=CC3=C2C=C(C=C3)C(=O)NO
Procedure, shortened: as §1

[10] = compound: CON(C)C(=O)N1N=C(c2cc(F)ccc2F)S[C@@]1(CCCN)c1ccccc1 [filanesib]
Procedure, shortened: as §1

[11] = compound: COc1cc2nc(-c3cc(F)ccc3O)nc(N[C@@H]3CNC[C@H]3C(C)(C)O)c2cc1OC
Procedure, shortened: as §1

[12] = compound: CS(=O)(=O)CCNCc1ccc(-c2ccc3ncnc(Nc4ccc(OCc5cccc(F)c5)c(Cl)c4)c3c2)o1 [lapatinib]
Procedure, shortened: as §1

[13] = compound: CN1CC[C@H](c2c(O)cc(O)c3c(=O)cc(-c4ccccc4Cl)oc23)[C@H](O)C1 [alvocidib]
Procedure, shortened: as §1

[14] = compound: CO[C@H]1C[C@@H]2CC[C@@H](C)[C@@](O)(O2)C(=O)C(=O)N2CCCC[C@H]2C(=O)O[C@H]([C@H](C)C[C@@H]2CC[C@H](n3cnnn3)[C@H](OC)C2)CC(=O)[C@H](C)/C=C(\C)[C@@H](O)[C@@H](OC)C(=O)[C@H](C)C[C@H](C)/C=C/C=C/C=C/1C [zotarolimus]
Procedure, shortened: as §1

[15] = compound: CN1CCN(CCOc2cc(OC3CCOCC3)c3c(Nc4c(Cl)ccc5c4OCO5)ncnc3c2)CC1 [saracatinib]
Procedure, shortened: as §1

[16] = compound: CNc1nc(-c2ccc3c(N)n[nH]c3c2)cc(N2C[C@@H](C(=O)NC3CCCCC3)CC[C@H]2C)n1
Procedure, shortened: as §1

Measured: log2 fold change

RGCC (UniProt Q9H4X1)
inactive: [1] -0.077 | [2] 0.294 | [3] 0.164 | [4] 0.011

RNF141 (UniProt Q8WVD5)
inactive: [5] -0.041 | [6] -0.032 | [1] 0.053 | [7] -0.028 | [8] 0.121 | [9] -0.22 | [10] 0.04 | [11] -0.061 | [3] 0.124 | [12] -0.103 | [4] 0.116

RIC8B isoform 1 (UniProt Q9NVN3)
inactive: [1] -0.245 | [9] -0.02

RFWD3 (UniProt Q6PCD5)
inactive: [5] 0.053 | [13] 0.015 | [1] -0.015 | [7] 0.216 | [8] -0.029 | [10] -0.008 | [14] -0.006 | [2] -0.081 | [11] 0.157 | [12] -0.157

RECQL5 (UniProt O94762)
inactive: [15] 0.075 | [13] 0.11 | [7] -0.111 | [16] -0.172 | [8] 0.093 | [14] 0.027 | [4] 0.027
